# PubChem BioAssay AID1053209, Peter MacCallum Cancer Centre – 2014
# Test: 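Gene losses that combine with doxorubicin to kill mouse bone cancer cells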 (follow-up of hits)
# System: mouse primary osteosarcoma cells
# Knock-down reagent: single siRNA against mouse genes, 25 nM (text also states 40 nM)
# Timing: about 120 h (48 h before drug, then 72 h with drug)
# Treatment: doxorubicin 100 nM (about IC30-40), added 48 h after transfection, for 72 h
# Detection: 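ATP-based luminescent viability, with or without doxorubicin, relative to non-targeting control NT1, mean of two replicates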
# Scale: viability with doxorubicin, vs NT1: higher = more viable cells under doxorubicin; viability ratio, doxorubicin over no drug: higher = less sensitisation to doxorubicin; viability without drug, vs NT1: higher = more viable cells without drug
# Call rule: 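Active when doxorubicin viability is at most 0.7 of NT1 and drug-free viability lies between 0.7 and 1.1, class LC dox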
# The deposit covers about 1,580 reagents; this is a random part of them. In the full data, 207 (13%) were called active. 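Rows are single siRNAs; four siRNAs per gene were tested, a gene counting as confirmed only when at least two agree.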 A number with no mark means an inactive call. The numbers tell different reagents against one gene apart.
gene,reagent no.,combined effect class,"viability with doxorubicin, vs NT1","viability ratio, doxorubicin over no drug","viability without drug, vs NT1"
Romo1,1,normal viability with and without drug,0.75,0.74,1.02
Romo1,2,normal viability with and without drug,1.02,0.98,1.04
Romo1,3,normal viability with and without drug,0.81,0.92,0.88
Romo1,4,normal viability with and without drug,1.05,1.12,0.94
Or10al6,1,normal viability with and without drug,0.94,0.99,0.95
Or10al6,2,low viability only with doxorubicin; normal without drug (active),0.6,0.67,0.9
Or10al6,3,low viability only with doxorubicin; normal without drug (active),0.62,0.69,0.9
Or10al6,4,normal viability with and without drug,0.73,0.89,0.82

Reagents above with an active call:
gene,reagent no.,combined effect class,"viability with doxorubicin, vs NT1","viability ratio, doxorubicin over no drug","viability without drug, vs NT1"
Or10al6,2,low viability only with doxorubicin; normal without drug (active),0.6,0.67,0.9
Or10al6,3,low viability only with doxorubicin; normal without drug (active),0.62,0.69,0.9

The listing continues.
gene,reagent no.,combined effect class,"viability with doxorubicin, vs NT1","viability ratio, doxorubicin over no drug","viability without drug, vs NT1"
Polr2c,1,low viability only with doxorubicin; normal without drug (active),0.5,0.59,0.85
Polr2c,2,normal viability with and without drug,0.78,0.8,0.98
Polr2c,3,normal viability with and without drug,0.81,0.92,0.88
Polr2c,4,normal viability with and without drug,0.92,0.88,1.04
Or51af1,1,normal viability with and without drug,0.96,0.94,1.02
Or51af1,2,normal viability with and without drug,1.03,0.97,1.06
Or51af1,3,normal viability with and without drug,0.92,0.93,0.99
Or51af1,4,normal viability with and without drug,0.97,0.97,1
Peli1,1,normal viability with and without drug,0.9,1.03,0.87
Peli1,2,normal viability with and without drug,1.04,1.04,1
Peli1,3,low viability only with doxorubicin; normal without drug (active),0.69,0.7,0.99
Peli1,4,normal viability with and without drug,1.09,1.11,0.98
Nipal4,1,normal viability with and without drug,0.99,1.01,0.98
Nipal4,2,normal viability with and without drug,1.02,0.98,1.04
Nipal4,3,low viability only without drug,0.75,1.07,0.7
Nipal4,4,normal viability with and without drug,1.01,0.96,1.05
